The values that follow come from paper PMC5470873.

In this assay the target is T1, mouse TMEM16A(ac) isoform (mouse), Q8BHY3.
T1 chain: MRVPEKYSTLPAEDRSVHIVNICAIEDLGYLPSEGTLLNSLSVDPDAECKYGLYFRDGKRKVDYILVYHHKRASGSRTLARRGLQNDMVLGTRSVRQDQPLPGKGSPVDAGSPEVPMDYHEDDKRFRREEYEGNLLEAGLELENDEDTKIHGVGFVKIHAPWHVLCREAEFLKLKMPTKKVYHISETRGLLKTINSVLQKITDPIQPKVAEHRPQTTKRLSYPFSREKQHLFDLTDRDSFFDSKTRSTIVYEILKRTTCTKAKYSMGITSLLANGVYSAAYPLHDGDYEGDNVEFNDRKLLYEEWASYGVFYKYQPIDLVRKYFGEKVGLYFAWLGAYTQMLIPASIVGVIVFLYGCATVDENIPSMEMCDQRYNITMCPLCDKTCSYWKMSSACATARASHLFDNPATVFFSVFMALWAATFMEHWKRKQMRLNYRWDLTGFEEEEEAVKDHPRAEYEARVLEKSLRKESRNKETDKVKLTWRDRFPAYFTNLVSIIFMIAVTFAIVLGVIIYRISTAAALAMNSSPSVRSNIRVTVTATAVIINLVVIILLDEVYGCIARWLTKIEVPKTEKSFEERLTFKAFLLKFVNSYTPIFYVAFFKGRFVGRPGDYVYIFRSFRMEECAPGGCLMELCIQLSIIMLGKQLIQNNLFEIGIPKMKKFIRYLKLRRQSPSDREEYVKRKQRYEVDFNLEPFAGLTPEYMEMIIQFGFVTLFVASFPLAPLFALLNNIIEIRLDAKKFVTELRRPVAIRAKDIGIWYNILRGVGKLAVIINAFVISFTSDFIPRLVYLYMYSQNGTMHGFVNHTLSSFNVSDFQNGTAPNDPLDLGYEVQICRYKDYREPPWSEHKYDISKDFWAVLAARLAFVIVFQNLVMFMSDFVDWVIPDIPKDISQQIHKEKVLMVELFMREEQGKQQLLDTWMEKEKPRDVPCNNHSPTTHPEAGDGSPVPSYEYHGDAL
The assay can be described thus: cryo-EM structure; purified mTMEM16A at 3 mg/ml in 0.12% digitonin, 20 mM HEPES pH 7.5, 150 mM NaCl, 0.5 mM CaCl2; single particle reconstruction with C2 symmetry imposed, 6.6 Å; poly-alanine model; both purified. The following applies: remark: other sources report otherwise.

Results are given in words; binding and its absence hold for the method and conditions named. Some binding calls cover weakened binding; strength is not graded here.

B1: mouse TMEM16A(ac) isoform, Q8BHY3 1-960 (natural protein)
chain: T1 chain
Consider B1, for which the binding entry was “binds”.
